The results are deposited in PubChem (AID1224904; Broad Institute, 2016).

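293T-iDUX4 dual-reporter cells; luminescence of the tet-on Italica luciferase control is read after 24 h.
The test concentration is not given here.
Percent change in the Italica control signal; more negative values mean stronger inhibition, which points to nonspecific, tet-on or cytotoxic effects.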

Values are in %.
Common to all entries: measured here: Italica tet-on control reporter.
This is a side read-out of the assay, for part of the compounds, not drawn at random.

SMILES | activity change (%)
COc1ccc(C#Cc2ccc([C@H]3[C@@H](CO)N4CCCCN(C)C[C@H]34)cc2)cc1 | 8.512
CC(C)C#Cc1ccc([C@@H]2[C@H](CO)N3CCCCN(C(=O)c4ccc(F)cc4)C[C@@H]23)cc1 | -20.37
COc1ccc(NC(=O)N2CCCCN3[C@H](CO)[C@@H](c4ccc(C5=CCCCC5)cc4)[C@H]3C2)cc1 | -51.36
COc1ccc2c3c(n(C)c2c1)[C@@H](CO)N(Cc1cccc(Cl)c1)CC31CCN(C(=O)C2CC2)CC1 | -21.57
COc1ccc2c3c([nH]c2c1)[C@H](CO)N(Cc1ccc(Cl)cc1)CC31CN(Cc2nccs2)C1 | -11.34
C[C@@H]1CN([C@@H](C)CO)C(=O)c2c(c3ccccc3n2C)-c2ccccc2CO[C@H]1CN(C)S(=O)(=O)c1ccccc1F | -0.1607
C[C@H]1CN([C@@H](C)CO)C(=O)c2c(c3ccccc3n2C)-c2ccccc2CO[C@H]1CN(C)Cc1ccccc1C(F)(F)F | -34.05
C/C=C/c1ccc([C@@H]2[C@@H](CO)N3CCCCN(CCC(F)(F)F)C[C@@H]23)cc1 | 3.407
C/C=C/c1ccc([C@@H]2[C@H](CO)N(CC3CCCC3)C23CN(S(=O)(=O)CC)C3)cc1 | -15.88
COc1ccc(C#Cc2ccc([C@@H]3[C@H](CO)N4CCCCN(C(=O)Nc5cccc(F)c5)C[C@@H]34)cc2)cc1 | -96.5
CCC(=O)N1CC(=O)N2[C@H](C1)[C@@H](c1ccc(C#CC3CCCCC3)cc1)[C@@H]2CO | -10.73
CN1c2ccc(-c3ccccc3)cc2[C@@H]2[C@@H](CCN2C(=O)NC2CCCCC2)[C@@H]1CO | -25.89
CN(C)C(=O)c1ccc(-c2ccc3c(c2)[C@@H]2[C@@H](CCN2C(=O)c2ccccc2F)[C@H](CO)N3)cc1 | -15.7
O=C(C[C@H]1CC[C@@H]2[C@H](COC[C@@H](O)CN2C(=O)Nc2ccc(Cl)c(Cl)c2)O1)NCc1ccc(Cl)c(Cl)c1 | -46.29
C[C@H](CO)N1C[C@H](C)[C@H](CN(C)S(=O)(=O)c2ccc([N+](=O)[O-])cc2)OCc2ccccc2-c2c(n(C)c3ccccc23)C1=O | -88.07
O=S(=O)(c1ccccc1F)N1CC[C@@H]2[C@H](CO)Nc3ccc(-c4cccc(F)c4)cc3[C@@H]21 | -31.28
COCC#Cc1ccc2c(c1)O[C@@H](CN(C)S(=O)(=O)c1ccc(OC)cc1)[C@H](C)CN([C@H](C)CO)S2(=O)=O | -27.21
CCC(=O)N1CCCCN2[C@H](CO)[C@H](c3ccc(/C=C/c4ccccc4)cc3)[C@@H]2C1 | -16.08
COc1cc(CN2C[C@@H]3N[C@H](C2)C3c2ccc(/C=C/c3ccccc3)cc2)cc(OC)c1 (some centres not stated) | -90.04
CO[C@@H]1CN(C)C(=O)c2ccc(NC(=O)NC(C)C)cc2OC[C@H](C)N(Cc2ccc(-c3ccccn3)cc2)C[C@@H]1C | 0.8077
CCC(=O)N1CC2(C1)CN(Cc1ccccc1Cl)[C@H](CO)c1[nH]c3cc(OC)ccc3c12 | -48.04
OC[C@H]1[C@@H](c2ccc(C#Cc3ccccc3F)cc2)[C@@H]2CN(CC3CCOCC3)CCCCN12 | -0.923
COc1cccc(CN2[C@H](CO)[C@H](c3ccccc3)C23CN(Cc2ccccc2OC)C3)c1 | -15.32
COc1ccccc1CN1C[C@@H]2N[C@H](C1)C2c1ccc(-c2cccc(C#N)c2)cc1 (some centres not stated) | -24.02
COc1cccc(-c2ccccc2[C@H]2[C@@H](CO)N(C(=O)Cc3ccccc3)[C@H]2C#N)c1 | -25.37
COc1cccc(-c2ccc3c(c2)[C@H]2[C@H](CCN2C(=O)C2CCOCC2)[C@H](CO)N3)c1 | 2.995
O=C(Nc1ccc(C(F)(F)F)cc1)N[C@@H]1C=C[C@@H](CC(=O)N2CCCCC2)O[C@H]1CO | -2.045
COc1ccccc1CN1CC2(C1)[C@H](c1ccccc1)[C@@H](CO)N2Cc1ccccc1 | -24.47
Cc1ccc(-c2ccc([C@H]3[C@@H](CO)N4CCCCN(Cc5ccccn5)C[C@H]34)cc2)cc1 | 2.999
O=C(C[C@@H]1CC[C@@H]2[C@H](COC[C@@H](O)CN2C(=O)Nc2ccc(Cl)c(Cl)c2)O1)NCc1ccc(F)cc1 | -8.5
COc1cccc(S(=O)(=O)N(C)C[C@H]2OCc3ccccc3-c3c(n(C)c4ccccc34)C(=O)N([C@@H](C)CO)C[C@H]2C)c1 | -51.3
O=C(Nc1ccc(Cl)cc1)N[C@H]1CC[C@@H](CCn2cc(-c3ccccc3F)nn2)O[C@@H]1CO | -26.5
COc1cccc(-c2ccc(C3[C@@H]4CN(C(=O)C5CCCCC5)C[C@H]3N4)cc2)c1 (some centres not stated) | 0.7847
O=C(c1ccc(F)cc1)N1C[C@@H]2N[C@H](C1)C2c1ccc(/C=C/c2ccccc2)cc1 (some centres not stated) | -9.688
COCC(=O)N1CC(=O)N2[C@H](CO)[C@H](c3ccc(C#Cc4cccnc4)cc3)[C@@H]2C1 | 9.58
C[C@@H]1CN([C@H](C)CO)C(=O)c2c(c3ccccc3n2C)-c2ccccc2CO[C@@H]1CN(C)S(=O)(=O)c1ccccc1F | -9.555
O=C(c1ccc2c(c1)OCO2)N1CC(=O)N2[C@H](CO)[C@H](c3ccc(C#Cc4ccccc4)cc3)[C@H]2C1 | -30.06
O=C(C[C@H]1CC[C@@H]2[C@H](COC[C@H](O)CN2CCc2ccccc2)O1)N1CCC(Cc2ccccc2)CC1 | -19.41
Cc1ccccc1-c1ccc([C@H]2[C@@H](CO)N3CCCCN(C(=O)NC4CCCC4)C[C@H]23)cc1 | -30.56
C[C@@H]1CN([C@@H](C)CO)C(=O)CCCn2nncc2CO[C@@H]1CN(C)Cc1ccc(Cl)c(Cl)c1 | -7.787
CCS(=O)(=O)N1CC(=O)N2[C@H](C1)[C@@H](c1ccc(C#Cc3cccc(F)c3)cc1)[C@@H]2CO | -18.33
O=C(Nc1ccccc1F)N1CCCCN2[C@H](C1)[C@@H](c1ccc(C#Cc3cccnc3)cc1)[C@@H]2CO | -31.08
COCC(=O)N1CCC2(CC1)CN(Cc1ccccc1F)[C@H](CO)c1[nH]c3cc(OC)ccc3c12 | -17.68
COc1ccc(CN2CC3(C2)CN(Cc2ccc4c(c2)OCO4)[C@@H](CO)c2[nH]c4cc(OC)ccc4c23)cc1 | -21.78
CCN1[C@@H]2Cn3c(ccc(/C=C/c4ccccc4)c3=O)[C@H]1[C@@H](C(=O)N1CCCCC1)[C@@H]2CO | -3.114
O=S(=O)(c1cccs1)N1CCCCN2[C@H](CO)[C@H](c3ccc(C4=CCCC4)cc3)[C@@H]2C1 | -20.17
O=C(NCc1ccccc1)[C@@H]1[C@@H](CO)[C@@H]2Cn3c(ccc(/C=C/c4ccccc4)c3=O)[C@H]1N2CC1CC1 | -9.036
C[C@H]1CN([C@@H](C)CO)C(=O)c2c(c3ccccc3n2C)-c2ccccc2CO[C@@H]1CN(C)C(=O)Nc1cccc(Cl)c1Cl | -59.25
O=S(=O)(Cc1ccccc1)N1C[C@@H]2N[C@H](C1)C2c1ccc(-c2ccccc2)cc1 (some centres not stated) | -16.33
O=S(=O)(c1ccccc1F)N1C[C@@H]2N[C@H](C1)C2c1ccc(/C=C/c2ccccc2)cc1 (some centres not stated) | -19.24
C[C@@H]1CN([C@@H](C)CO)C(=O)c2c(c3ccccc3n2C)-c2ccccc2CO[C@@H]1CN(C)C(=O)Nc1ccnc(N2CCOCC2)c1 | -9.169
N#Cc1cccc(-c2ccc3c(c2)[C@@H]2[C@@H](CCN2S(=O)(=O)c2ccc(F)cc2)[C@@H](CO)N3)c1 | -7.647
O=C(C[C@@H]1C[C@H]2c3cc(NC(=O)c4ccc5c(c4)OCO5)ccc3O[C@H]2[C@@H](CO)O1)NCc1ccc(Cl)cc1 | -17.32
Cc1ccccc1-c1ccc(C2[C@@H]3CN(C(=O)Cc4ccncc4)C[C@H]2N3)cc1 (some centres not stated) | 2.286
C[C@H](CO)N1C[C@H](C)[C@@H](CN(C)CC2CCCCC2)OCc2ccccc2-c2c(n(C)c3ccccc23)C1=O | -56.12
CN1c2ccc(-c3cccc(C#N)c3)cc2[C@H]2[C@H](CCN2C(=O)Cc2ccccn2)[C@H]1CO | 1.684
Cc1cccc(-c2ccc([C@H]3[C@@H](CO)N4CCCCN(C(=O)NC(C)C)C[C@@H]34)cc2)c1 | -13.27
COc1ccc(S(=O)(=O)N2CCCCN3[C@H](CO)[C@H](c4ccc(C5=CCCC5)cc4)[C@H]3C2)cc1 | -0.8728
COc1ccc2c3c([nH]c2c1)[C@@H](CO)N(S(C)(=O)=O)CC31CCN(Cc2ccccc2)CC1 | -61.83
CO[C@@H]1CN(C)C(=O)c2ccc(NC(=O)NC3CCCCC3)cc2OC[C@@H](C)N(CCc2ccccc2)C[C@H]1C | 0.5225
CCCNC(=O)N1CC2(C1)[C@H](c1ccccc1)[C@@H](CO)N2Cc1cccc(F)c1 | 1.782
CCC(=O)N1CC2(CCN(Cc3ccc(F)cc3)CC2)c2c(n(C)c3cc(OC)ccc23)[C@H]1CO | -57.3
C[C@@H]1CN([C@@H](C)CO)C(=O)c2c(c3ccccc3n2C)-c2ccccc2CO[C@@H]1CN(C)Cc1cccc(C(F)(F)F)c1 | 2.715

Repeated from the top, 8 entries:

* COc1ccc(C#Cc2ccc([C@H]3[C@@H](CO)N4CCCCN(C)C[C@H]34)cc2)cc1 | activity change 8.512%
* CC(C)C#Cc1ccc([C@@H]2[C@H](CO)N3CCCCN(C(=O)c4ccc(F)cc4)C[C@@H]23)cc1 | activity change -20.37%
* COc1ccc(NC(=O)N2CCCCN3[C@H](CO)[C@@H](c4ccc(C5=CCCCC5)cc4)[C@H]3C2)cc1 | activity change -51.36%
* COc1ccc2c3c(n(C)c2c1)[C@@H](CO)N(Cc1cccc(Cl)c1)CC31CCN(C(=O)C2CC2)CC1 | activity change -21.57%
* COc1ccc2c3c([nH]c2c1)[C@H](CO)N(Cc1ccc(Cl)cc1)CC31CN(Cc2nccs2)C1 | activity change -11.34%
* C[C@@H]1CN([C@@H](C)CO)C(=O)c2c(c3ccccc3n2C)-c2ccccc2CO[C@H]1CN(C)S(=O)(=O)c1ccccc1F | activity change -0.1607%
* C[C@H]1CN([C@@H](C)CO)C(=O)c2c(c3ccccc3n2C)-c2ccccc2CO[C@H]1CN(C)Cc1ccccc1C(F)(F)F | activity change -34.05%
* C/C=C/c1ccc([C@@H]2[C@@H](CO)N3CCCCN(CCC(F)(F)F)C[C@@H]23)cc1 | activity change 3.407%